Experimental data reported in PubChem BioAssay AID2685 (National Center for Advancing Translational Sciences (NCATS), 2010).
This is one part of the list. Shown are side measurements of this screen, not its main read-out; they come without a call. Most of these compounds were active or inconclusive in the main read-out, so they are no random draw. The note in brackets gives the kind of curve behind each potency; many fits are weak.

Assay: qHTS Assay for Lipid Storage Modulators in Drosophila S3 Cells;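 on cell number change: cells counted by Cell Tracker Red CMTPX staining in the red channel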
Details: BODIPY lipid droplet fluorescence, 18-24 h; for cell number change: measured here: cell count max response, cells fed with added oleic acid
Method in brief: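 Laser-scanning cytometry quantifies lipid droplet accumulation (500–530 nm total intensity; droplet/cell object ratio) in oleic acid-fed (400 uM added) Drosophila S3 cells treated with a concentration series. 20 uM Triacsin C defined 100% inhibition.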

[1] = measured here: lipid fluorescence (Fed channel) AC50, cells fed with added oleic acid
[2] = measured here: cell number channel AC50, cells fed with added oleic acid

Row | SMILES | cell number change [%] | AC50 [1] | AC50 [2]
1 | COC(=O)c1ccc(NC(=O)CS(=O)(=O)c2ccccc2)cc1 | -7.94 | 29.1 µM [falling, single point] | 
2 | O=C(NCCCN1CCCC1=O)c1cccc(S(=O)(=O)NCc2ccccc2)c1 | -13.1 | 7.31 µM [falling, partial curve] | 
3 | COc1ccccc1-n1ccnc(SCC(=O)NCc2ccccc2)c1=O |  | 29.1 µM [falling, single point] | 
4 | CCOC(=O)c1c(-c2ccco2)csc1N | -31.9 |  | 0.92 µM [falling, full curve, poor fit]
5 | Cc1ccc(N(C)S(=O)(=O)c2ccc3c(c2)NC(=O)C(C)S3)cc1 (configuration not stated) | 2.36 | 29.1 µM [rising, single point] | 
6 | O=C(CCn1c(=O)c2sccc2n(CC(=O)OCc2ccccc2)c1=O)NCc1ccccc1 | 3.4 | 0.291 µM [rising, partial curve, poor fit] | 0.326 µM [rising, full curve]
7 | COc1cc(C(=O)N2C[C@H]3CC[C@H]2C3)ccc1OC1CCN(C(C)=O)CC1 | 19.3 | 29.1 µM [rising, single point] | 
8 | COc1ccc(N/N=C(/C)c2cnnc(-c3ccccc3)n2)cc1 | 23.3 | 1.84 µM [rising, partial curve] | 
9 | CCn1cc(C(=O)N(C)c2ccc(OC)cc2)c2cc(OC)c(OC)cc2c1=O | -19.8 |  | 4.11 µM [falling, single point]
10 | Clc1ccc(OCCCc2nc(-c3cccnc3)no2)c(Cl)c1 |  | 9.2 µM [falling, partial curve] | 
11 | C/C(=N\NC(=O)c1cccc([N+](=O)[O-])c1)c1cccnc1 | 29 | 0.82 µM [falling, full curve, poor fit] | 
12 | Cc1cccc(N2C(=O)CC(N3CCN(c4ccc(Cl)cc4)CC3)C2=O)c1 (configuration not stated) | 2.64 |  | 
13 | CCCC(CCC)=NNc1ccc(S(=O)(=O)Nc2ccccc2OC)cc1[N+](=O)[O-] | -18 |  | 
14 | COc1ccc(NC(C)C(=O)Nc2cc(C(F)(F)F)ccc2N2CCOCC2)c(OC)c1 (configuration not stated) | -33.3 |  | 0.92 µM [falling, full curve, poor fit]
15 | O=c1[nH][nH]cc1C=Nc1ccc(Cl)cc1 | 31.7 | 5.8 µM [falling, partial curve] | 
16 | COc1ccc([N+](=O)[O-])cc1C1NN=C(c2cccc3ccccc23)S1 (configuration not stated) | 64.5 | 2.91 µM [rising, full curve, poor fit] | 1.16 µM [rising, full curve]
17 | COCCn1c(SCc2cccc([N+](=O)[O-])c2)nc2ccccc2c1=O | 19.1 |  | 
18 | O=C(NCc1cccnc1)c1ccc(NC(=O)c2ccc(Br)cc2)cc1 | -0.451 | 6.51 µM [rising, single point] | 
19 | CCOc1ccccc1NC(=O)c1ccc2nc[nH]c2c1 | -6.96 | 6.51 µM [rising, partial curve, poor fit] | 
20 | CCCCN1C2=C(C(=O)CC(C)(C)C2)C(c2ccccc2)C2=C1c1ccccc1C2=O (configuration not stated) |  |  | 6.51 µM [rising, single point]

Row | SMILES | cell number change [%] | AC50 [1] | AC50 [2]
21 | CCOC(=O)c1c(C)n(C)c2ccc(OC)c(NC(=O)CN3CCC4(CC3)OCCO4)c12 | 0.245 | 2.59 µM [rising, single point] | 
22 | O=C(CSc1nnc(CNc2ccc(F)cc2)n1Cc1ccco1)N1CCCC1 | 7.83 | 20.6 µM [rising, single point] | 
23 | Cn1c(-[n+]2c(-c3ccccc3)cc(-c3ccccc3)cc2-c2ccccc2)nc2cc([N+](=O)[O-])ccc21 | -57.7 | 16.4 µM [falling, single point] | 16.4 µM [falling, single point]
24 | CC(=O)Nc1c(-c2cc(=O)oc3cc(C)ccc23)oc2ccccc12 | 66.7 |  | 8.2 µM [rising, partial curve]
25 | Cc1cccc(C)c1NC1=NCCCCC1 | 48.5 |  | 
26 | COc1ccc(Br)cc1C(=O)CCC(=O)OCC(=O)Nc1cc(C(N)=O)cc(C(N)=O)c1 | 10.5 |  | 
27 | Cc1c(NC(=O)c2cccc(F)c2)c(=O)n(-c2ccccc2)n1C | -31.1 | 14.6 µM [rising, partial curve] | 32.6 µM [falling, single point]
28 | COC(=O)c1c(NC(=O)/C=C/C(=O)O)sc(Cc2ccccc2)c1C | -35.5 |  | 0.116 µM [falling, full curve, poor fit]
29 | NC(=O)NC(=O)CSc1nc2sc(-c3ccccc3)cc2c(=O)n1-c1ccccc1 | 32.2 | 16.4 µM [rising, single point] | 
30 | O=C(O)Cn1cc(CN2CCOCC2)c2ccccc21 | 19.1 |  | 
31 | COc1ccc(Nc2nc(OC)nc(N3CCOCC3)n2)cc1 |  | 0.082 µM [rising, full curve, poor fit] | 
32 | Cc1cc(C)c(C)c(OCCOCCN2CCOCC2)c1 | 2.21 | 6.51 µM [falling, single point] | 2.31 µM [falling, partial curve, poor fit]
33 | COc1ccc(N2CCN(C(=O)c3ccc(C)c(Cl)c3)CC2)cc1 | -11.7 | 0.082 µM [falling, full curve, poor fit] | 
34 | CCC(=O)c1c[nH]c(C(=O)NCCCN2CCOCC2)c1 | -106 | 0.651 µM [falling, single point] | 25.9 µM [falling, partial curve, poor fit]
35 | O=C(Nc1cccnc1)c1cccc(S(=O)(=O)Nc2cccc(Cl)c2)c1 | -4.72 | 29.1 µM [falling, single point] | 
36 | CN(C(=O)COC(=O)/C=C/c1ccc(C(F)(F)F)cc1)c1c(N)n(Cc2ccccc2)c(=O)[nH]c1=O | -46 | 0.517 µM [falling, full curve, poor fit] | 13 µM [falling, partial curve]
37 | CCCc1nnc(NC(=O)C2CCCO2)s1 (configuration not stated) | -27.9 | 1.16 µM [falling, partial curve, poor fit] | 1.03 µM [falling, single point]
38 | COC(=O)[C@@H](Cc1ccccc1)NC(=O)[C@H]1CCC(=O)N1C(=O)OCc1ccccc1 |  | 3.66 µM [falling, full curve] | 
39 | O=C(OCC(=O)N1CCN(c2ccccc2)CC1)C1CCCN1S(=O)(=O)c1ccc(Cl)cc1 (configuration not stated) | 124 |  | 20.6 µM [rising, partial curve]
40 | CN(CCC1CCOCC1)C(=O)CC1C(=O)NCCN1Cc1c(F)cccc1Cl (configuration not stated) | 17.8 | 29.1 µM [falling, single point] | 

Some of these compounds in order of formula weight, rising.
Row | SMILES | cell number change [%] | AC50 [1] | AC50 [2]
8 | COc1ccc(N/N=C(/C)c2cnnc(-c3ccccc3)n2)cc1 | 23.3 | 1.84 µM [rising, partial curve] | 
27 | Cc1c(NC(=O)c2cccc(F)c2)c(=O)n(-c2ccccc2)n1C | -31.1 | 14.6 µM [rising, partial curve] | 32.6 µM [falling, single point]
20 | CCCCN1C2=C(C(=O)CC(C)(C)C2)C(c2ccccc2)C2=C1c1ccccc1C2=O (configuration not stated) |  |  | 6.51 µM [rising, single point]
23 | Cn1c(-[n+]2c(-c3ccccc3)cc(-c3ccccc3)cc2-c2ccccc2)nc2cc([N+](=O)[O-])ccc21 | -57.7 | 16.4 µM [falling, single point] | 16.4 µM [falling, single point]

Remaining list, next part.

Row | SMILES | cell number change [%] | AC50 [1] | AC50 [2]
41 | CN(C)/C=C1\C=C2C(=O)c3ccccc3N2C1=O | -96.1 | 4.11 µM [falling, full curve] | 23.1 µM [falling, partial curve]
42 | Cc1ccc(S(=O)(=O)Nc2ccc(-n3cnnn3)cc2)c(C)c1 |  | 0.231 µM [falling, full curve] | 
43 | N#CC1=C(SCC(=O)c2cc3ccccc3oc2=O)NC(=O)C(C#N)C12CCCC2 (configuration not stated) |  | 1.03 µM [rising, full curve] | 
44 | Cc1occc1C(=O)Nc1cccc([N+](=O)[O-])c1 | 38 | 6.51 µM [rising, single point] | 8.2 µM [rising, partial curve]
45 | CC(C)c1ccc(S(=O)(=O)N2CCN(C(=O)c3cc([N+](=O)[O-])ccc3N3CCOCC3)CC2)cc1 | -11.4 | 29.1 µM [falling, single point] | 
46 | O=C(CCCOc1ccc(Cl)cc1Cl)Nc1ccncc1 | -10.3 | 0.00517 µM [rising, full curve, poor fit] | 
47 | Cc1occc1C(=O)NNC(=O)NC12CC3CC(CC(C3)C1)C2 | 2.21 | 1.03 µM [falling, partial curve, poor fit] | 
48 | NC(=S)N/N=C/c1coc2ccc(F)cc2c1=O | 27.2 |  | 
49 | Cc1ccc(C(=O)COC(=O)c2ccc(Br)o2)cc1C |  | 11.6 µM [rising, single point] | 
50 | COc1ccc(CCNC(=O)CSc2nc(O)c(CC(C)C)c(=O)[nH]2)cc1OC | -5.29 |  | 
51 | O=C(NC1CCS(=O)(=O)C1)C1C2CC3CC(C2)CC1C3 (configuration not stated) | -15.5 | 1.46 µM [falling, full curve] | 
52 | O=C1SC(Cc2ccccc2)C(=O)N1c1ccccc1 (configuration not stated) | 17 | 2.91 µM [rising, partial curve] | 
53 | CCCCN(CCCC)c1cc(C)nc(-c2ccccc2O)n1 | -34.9 | 0.259 µM [falling, full curve, poor fit] | 10.3 µM [falling, partial curve, poor fit]
54 | O=C(O)c1ccc(OS(=O)(=O)c2ccc(Cl)s2)cc1 | -4.29 | 29.1 µM [rising, single point] | 
55 | COc1ccccc1/C=C/C(=O)Nc1cccc(S(=O)(=O)NC2=NCCCCC2)c1 | 32.9 | 29.1 µM [rising, partial curve, poor fit] | 0.651 µM [rising, full curve, poor fit]
56 | COc1ccc(C(=O)NNC(=O)C2CC=CCC2)cc1 (configuration not stated) | 9.45 |  | 
57 | CN(C)S(=O)(=O)c1cccc(NC(=O)COC(=O)CCOc2ccccc2)c1 | -21.9 |  | 
58 | Cc1nnc(SCC(=O)NNC(=O)COc2ccc(Cl)cc2)n1C | 10.7 |  | 
59 | Cc1ccc(C)c(NC(=O)COC(=O)c2ccc3ccccc3n2)c1 | -31.8 |  | 20.6 µM [falling, single point]
60 | Cc1ccc(S(=O)(=O)N2CCOCC2)cc1NC(=O)COc1ccc(C(=O)c2ccccc2)cc1 |  | 3.66 µM [falling, partial curve] | 
